# Experimental data published in PubChem BioAssay AID264 (DTP/NCI, 2004).
# The list does not hold the whole screen: it gathers tests that were run many times, whatever their T/C, doses with no T/C, and many T/C values between a quarter and a half above the control. Other doses and runs of a compound stand elsewhere. T/C is the treated group as % of the vehicle group. Schedules are NCI's codes, read here as Q, the interval in days (D) or hours (H), X, the number of doses. Some T/C values carry the count of animals alive at the toxicity check (mostly the fifth day); where none is given, no animal had died by that day. Some doses have a count of surviving animals in place of a T/C: the source files T/C as zero there, which appears to mark a toxic dose or a test without result, not a measured value. Survivors were counted at the toxicity check, usually on the fifth day, unless a day is given; later deaths do not show.
# Test system: nude mice, LX-1 lung xenograft intrarenal, tumor weight T/C
# Assay: NCI In Vivo Anticancer Drug Screen. Data for tumor model Human Lung LX-1 Xenograft (intrarenal inoculation) in NU/NU Swiss (nude) mice
# Details: T/C endpoint: mean tumor weight change, higher T/C = larger tumour; for T/C: evaluated on day 11
# Outline: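 Readout: T/C, i.e. treated-group tumor measurement over vehicle-control measurement. Mice bearing transplantable tumors were dosed with compound or vehicle.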
# [1] = dose: 1200.0 mg/kg/injection, schedule: Q04DX003 (sc), vehicle: saline
smiles,measurement,setting,value
O=C1OC(C(O)CO)C(O)=C1O (stereo unspecified),survivor count,"dose: 3200.0 mg/kg/injection, schedule: Q01DX010 (sc), vehicle: saline",0 of 3 on day 11
CN(C)CC(Cl)CCl (stereo unspecified),survivor count,"dose: 600.0 mg/kg/injection, schedule: Q04DX003 (sc), vehicle: saline",1 of 6 on day 11
same,survivor count,[1],0 of 6 on day 11
same,survivor count,"dose: 2400.0 mg/kg/injection, schedule: Q04DX003 (sc), vehicle: saline",0 of 6 on day 11
COC1=C(N)C(=O)c2nc(-c3nc(C(=O)O)c(C)c(-c4ccc(OC)c(OC)c4O)c3N)ccc2C1=O,survivor count,"dose: 1.0 mg/kg/injection, schedule: Q01DX010 (sc), vehicle: saline",0 of 3 on day 11
same,survivor count,"dose: 2.0 mg/kg/injection, schedule: Q01DX010 (sc), vehicle: saline",0 of 6 on day 11
Cc1ccccc1CN1C2=NCCN2C(=O)C2=C1CCN(S(=O)(=O)c1ccc(Cl)c(S(N)(=O)=O)c1)C2,T/C,[1],145 % of control [5 of 6 alive on day 11]
COc1ccc(C(N)=O)cc1N=NN(C)C,survivor count,"dose: 100.0 mg/kg/injection, schedule: Q01DX010 (sc), vehicle: Klucel (hydroxypropylcellulose) (HPC)",0 of 3 on day 11
same,survivor count,"dose: 200.0 mg/kg/injection, schedule: Q01DX010 (sc), vehicle: Klucel (hydroxypropylcellulose) (HPC)",0 of 3 on day 11
CCC[CH2][Sn]1([CH2]CCC)[O]C2C(CO)OC(n3ccc(N)nc3=O)C2[O]1 (stereo unspecified),T/C,"dose: 6.0 mg/kg/injection, schedule: Q04DX003 (sc), vehicle: Klucel (hydroxypropylcellulose) (HPC)",133 % of control
C=C(C)[C@H]1Cc2c(ccc3c2O[C@@H]2COc4cc(OC)c(OC)cc4[C@@H]2C3=O)O1,T/C,"dose: 8.0 mg/kg/injection, schedule: Q01DX010 (sc), vehicle: saline with Tween-80",149 % of control
same,survivor count,"dose: 16.0 mg/kg/injection, schedule: Q01DX010 (sc), vehicle: saline with Tween-80",1 of 3 on day 11
NS(=O)(=O)OCCCCCCCOS(N)(=O)=O,survivor count,"dose: 600.0 mg/kg/injection, schedule: Q04DX003 (ip), vehicle: saline with Tween-80",0 of 6 on day 11
same,survivor count,"dose: 1200.0 mg/kg/injection, schedule: Q04DX003 (ip), vehicle: saline with Tween-80",0 of 6 on day 11
CNc1n[n+](-c2ccccc2)no1,T/C,"dose: 18.75 mg/kg/injection, schedule: Q04DX003 (sc), vehicle: water",126 % of control
same,survivor count,"dose: 150.0 mg/kg/injection, schedule: Q04DX003 (sc), vehicle: water",2 of 6 on day 11
CC[N](CC)[Ge]([CH2]C)[CH2]C.CC[N](CC)[Ge]([CH2]C)[CH2]C,survivor count,"dose: 100.0 mg/kg/injection, schedule: Q01DX010 (sc), vehicle: suspension in saline",1 of 3 on day 11
C[n+]1c(/C=N/NC(N)=S)ccc2ccccc21,survivor count,"dose: 2400.0 mg/kg/injection, schedule: Q04DX003 (sc), vehicle: saline with Tween-80",0 of 6 on day 11
O=C(O)CSc1nc(-c2ccccc2)c(-c2ccccc2)n1-c1ccccn1,survivor count,"dose: 200.0 mg/kg/injection, schedule: Q01DX010 (sc), vehicle: water",1 of 3 on day 11
same,survivor count,"dose: 400.0 mg/kg/injection, schedule: Q01DX010 (sc), vehicle: water",0 of 3 on day 11
O=CC(NC(=O)N(CCCl)N=O)C(O)C(O)C(O)CO (stereo unspecified),T/C,"dose: 3.0 mg/kg/injection, schedule: Q01DX010 (sc), vehicle: Klucel (hydroxypropylcellulose) (HPC)",136 % of control
same,T/C,"dose: 6.0 mg/kg/injection, schedule: Q01DX010 (sc), vehicle: Klucel (hydroxypropylcellulose) (HPC)",134 % of control
same,survivor count,"dose: 12.0 mg/kg/injection, schedule: Q01DX010 (sc), vehicle: Klucel (hydroxypropylcellulose) (HPC)",1 of 2 on day 11
same,survivor count,"dose: 24.0 mg/kg/injection, schedule: Q01DX010 (sc), vehicle: Klucel (hydroxypropylcellulose) (HPC)",0 of 3 on day 11
CCOC(=O)C(N)CSC(=O)NC (stereo unspecified),T/C,"dose: 100.0 mg/kg/injection, schedule: Q04DX003 (sc), vehicle: saline",137 % of control
same,T/C,"dose: 200.0 mg/kg/injection, schedule: Q04DX003 (sc), vehicle: saline",128 % of control
